Laboratory results published in patent US20060135611A1, “Use of 2,5-dihydroxybenzenesulfonic compounds for the treatment of disorders based on an impairment of no production and/or of regulation of edhf function” (priority 2002, published 2006).
For at least one compound, name, drawing or mass did not settle the structure.

Test system: human penile resistance arteries (HPRA)
Assay: Vascular reactivity of resistance penile arteries (myograph, norepinephrine-contracted)
Details: extracellular K+ 35 mM, or apamin 100 nM + charybdotoxin 100 nM
Source text: Penile small arteries, helicine arteries (lumen diameter 150-400 μm), which are the terminal branches of deep penile arteries, were dissected by carefully removing the adhering trabecular tissue, and arterial ring segments (of 2 mm length) were subsequently mounted on two 40 μm wires on microvascular double Halpern-Mulvany myographs (J.P. Trading, Aarhus, Denmark) for isometric tension recordings. […] Passive tension and internal circumference of the vascular segments when relaxed in situ under a transmural pressure of […] (L100) were determined. […]
The preparations were then exposed to 125 mM K^+(KPSS, equimolar substitution of […] in PSS) and the contractile response was measured. The arteries were contracted with 1 μm norepinephrine (approximately 80% of KPSS induced contraction) and relaxation responses were evaluated by cumulative additions of compounds to the chambers.
Relaxation responses are expressed as percentage of total relaxation (loss in tone) induced by the addition of 0.1 mM papaverine HCl to the chambers at the end of the experiment. All data are expressed as mean ± standard error. […] Erectile responses were determined by measuring the area under the curve (AUC) of the intracavemosal pressure increases to rat cavemosal nerve stimulation normalized by mean arterial pressure values. […]

CC(=O)OCC[N+](C)(C)C [acetylcholine]
ACh-induced relaxations of HPRA in presence of NOS and COX inhibition, with high K+ or APA + CTX: abolished
